The target in test [1] is T1, Halo-tagged Dlc1 isoform 2 (mouse) (UniProt Q9R0Z9).
T1 sequence: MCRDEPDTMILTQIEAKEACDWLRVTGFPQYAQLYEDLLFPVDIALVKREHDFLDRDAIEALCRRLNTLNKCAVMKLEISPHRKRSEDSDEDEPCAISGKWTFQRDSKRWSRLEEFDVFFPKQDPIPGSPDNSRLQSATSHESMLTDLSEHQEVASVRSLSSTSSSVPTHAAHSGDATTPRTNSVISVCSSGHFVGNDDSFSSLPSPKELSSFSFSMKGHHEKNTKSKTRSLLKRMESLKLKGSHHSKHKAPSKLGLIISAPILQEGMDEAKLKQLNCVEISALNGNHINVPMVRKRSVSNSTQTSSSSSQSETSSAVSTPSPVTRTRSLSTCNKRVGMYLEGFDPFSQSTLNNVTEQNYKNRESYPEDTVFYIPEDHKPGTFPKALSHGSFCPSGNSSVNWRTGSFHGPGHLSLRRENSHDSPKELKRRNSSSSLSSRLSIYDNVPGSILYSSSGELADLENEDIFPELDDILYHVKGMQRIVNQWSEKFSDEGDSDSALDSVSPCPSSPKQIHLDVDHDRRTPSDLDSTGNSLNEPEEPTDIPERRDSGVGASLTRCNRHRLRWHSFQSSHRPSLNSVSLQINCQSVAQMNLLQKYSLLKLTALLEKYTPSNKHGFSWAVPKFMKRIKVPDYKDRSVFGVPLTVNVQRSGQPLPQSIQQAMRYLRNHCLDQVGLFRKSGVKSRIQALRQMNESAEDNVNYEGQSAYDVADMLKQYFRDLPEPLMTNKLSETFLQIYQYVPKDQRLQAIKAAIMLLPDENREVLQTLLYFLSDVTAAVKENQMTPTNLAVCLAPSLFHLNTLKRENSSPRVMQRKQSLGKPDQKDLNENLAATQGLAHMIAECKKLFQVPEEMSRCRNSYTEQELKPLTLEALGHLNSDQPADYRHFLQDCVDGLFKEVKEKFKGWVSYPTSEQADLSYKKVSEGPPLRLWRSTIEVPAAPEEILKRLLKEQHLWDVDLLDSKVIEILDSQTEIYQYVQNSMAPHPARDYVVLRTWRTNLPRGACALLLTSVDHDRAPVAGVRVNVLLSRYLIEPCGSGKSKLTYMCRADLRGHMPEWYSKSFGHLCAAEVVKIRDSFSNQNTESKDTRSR
Nature of the test: pull-down; Halo-tagged Dlc1 isoforms transiently transfected in OC-033 cells; eluates of the Halo-resin pull-down run on SDS-PAGE and immunoblotted for Myh9, Plec and Spna2. For orientation: A western blot detects proteins with antibodies after separation by electrophoresis.

By UniProt entry, the sequences of proteins in these tests, tags left out.
UniProt Q8VDD5: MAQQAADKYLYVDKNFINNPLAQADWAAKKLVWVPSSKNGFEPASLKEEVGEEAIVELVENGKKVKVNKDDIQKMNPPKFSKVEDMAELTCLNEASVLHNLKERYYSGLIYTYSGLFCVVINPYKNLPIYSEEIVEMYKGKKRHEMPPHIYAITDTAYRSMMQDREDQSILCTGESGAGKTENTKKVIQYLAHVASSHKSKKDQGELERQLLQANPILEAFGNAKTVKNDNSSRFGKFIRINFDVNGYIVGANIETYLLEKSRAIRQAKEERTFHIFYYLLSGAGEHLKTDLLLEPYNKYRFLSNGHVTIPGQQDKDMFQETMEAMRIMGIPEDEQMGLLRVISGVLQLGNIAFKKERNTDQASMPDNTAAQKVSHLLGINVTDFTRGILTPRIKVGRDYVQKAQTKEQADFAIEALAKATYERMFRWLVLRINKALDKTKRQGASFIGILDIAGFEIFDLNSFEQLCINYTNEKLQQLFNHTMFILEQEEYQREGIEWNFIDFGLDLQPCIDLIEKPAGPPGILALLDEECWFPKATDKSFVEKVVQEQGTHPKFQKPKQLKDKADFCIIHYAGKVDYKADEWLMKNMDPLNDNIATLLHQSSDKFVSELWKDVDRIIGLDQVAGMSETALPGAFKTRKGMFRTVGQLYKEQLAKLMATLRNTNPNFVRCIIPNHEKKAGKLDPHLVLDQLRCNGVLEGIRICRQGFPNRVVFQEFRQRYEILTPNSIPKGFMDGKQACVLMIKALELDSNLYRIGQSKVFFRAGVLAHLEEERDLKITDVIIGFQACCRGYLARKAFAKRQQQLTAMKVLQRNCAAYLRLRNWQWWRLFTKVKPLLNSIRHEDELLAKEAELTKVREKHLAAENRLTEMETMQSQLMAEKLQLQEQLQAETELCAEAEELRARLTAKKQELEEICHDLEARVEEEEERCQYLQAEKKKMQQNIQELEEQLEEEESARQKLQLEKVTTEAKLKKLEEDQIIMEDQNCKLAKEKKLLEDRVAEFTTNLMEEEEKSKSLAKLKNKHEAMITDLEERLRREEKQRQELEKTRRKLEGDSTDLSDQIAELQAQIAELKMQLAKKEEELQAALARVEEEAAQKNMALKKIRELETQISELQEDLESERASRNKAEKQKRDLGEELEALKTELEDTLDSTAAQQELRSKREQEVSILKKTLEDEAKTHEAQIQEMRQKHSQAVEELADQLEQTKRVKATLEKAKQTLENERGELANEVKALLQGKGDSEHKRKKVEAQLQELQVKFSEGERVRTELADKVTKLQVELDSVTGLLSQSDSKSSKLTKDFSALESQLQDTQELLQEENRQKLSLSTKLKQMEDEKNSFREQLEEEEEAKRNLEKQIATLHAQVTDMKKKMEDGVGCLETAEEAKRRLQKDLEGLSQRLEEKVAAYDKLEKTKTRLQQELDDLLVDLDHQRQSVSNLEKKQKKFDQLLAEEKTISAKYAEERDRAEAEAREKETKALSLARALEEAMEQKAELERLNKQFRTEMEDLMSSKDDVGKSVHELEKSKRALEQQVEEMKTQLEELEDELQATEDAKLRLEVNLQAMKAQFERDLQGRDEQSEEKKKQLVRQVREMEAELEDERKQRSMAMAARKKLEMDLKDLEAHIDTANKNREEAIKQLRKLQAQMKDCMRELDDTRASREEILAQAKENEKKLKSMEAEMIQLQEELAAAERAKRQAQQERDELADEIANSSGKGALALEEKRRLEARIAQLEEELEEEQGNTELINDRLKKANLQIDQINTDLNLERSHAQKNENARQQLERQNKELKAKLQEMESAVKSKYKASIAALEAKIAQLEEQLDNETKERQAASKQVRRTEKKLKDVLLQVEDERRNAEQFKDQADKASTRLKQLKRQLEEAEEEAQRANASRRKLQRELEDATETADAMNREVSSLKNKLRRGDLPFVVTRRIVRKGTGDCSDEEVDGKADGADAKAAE

In test [2] the target is T2, Dlc1 (endogenous, constitutively expressed) (mouse (endogenous in Bend3 and BC-7-2)) (UniProt Q9R0Z9).
T2 sequence: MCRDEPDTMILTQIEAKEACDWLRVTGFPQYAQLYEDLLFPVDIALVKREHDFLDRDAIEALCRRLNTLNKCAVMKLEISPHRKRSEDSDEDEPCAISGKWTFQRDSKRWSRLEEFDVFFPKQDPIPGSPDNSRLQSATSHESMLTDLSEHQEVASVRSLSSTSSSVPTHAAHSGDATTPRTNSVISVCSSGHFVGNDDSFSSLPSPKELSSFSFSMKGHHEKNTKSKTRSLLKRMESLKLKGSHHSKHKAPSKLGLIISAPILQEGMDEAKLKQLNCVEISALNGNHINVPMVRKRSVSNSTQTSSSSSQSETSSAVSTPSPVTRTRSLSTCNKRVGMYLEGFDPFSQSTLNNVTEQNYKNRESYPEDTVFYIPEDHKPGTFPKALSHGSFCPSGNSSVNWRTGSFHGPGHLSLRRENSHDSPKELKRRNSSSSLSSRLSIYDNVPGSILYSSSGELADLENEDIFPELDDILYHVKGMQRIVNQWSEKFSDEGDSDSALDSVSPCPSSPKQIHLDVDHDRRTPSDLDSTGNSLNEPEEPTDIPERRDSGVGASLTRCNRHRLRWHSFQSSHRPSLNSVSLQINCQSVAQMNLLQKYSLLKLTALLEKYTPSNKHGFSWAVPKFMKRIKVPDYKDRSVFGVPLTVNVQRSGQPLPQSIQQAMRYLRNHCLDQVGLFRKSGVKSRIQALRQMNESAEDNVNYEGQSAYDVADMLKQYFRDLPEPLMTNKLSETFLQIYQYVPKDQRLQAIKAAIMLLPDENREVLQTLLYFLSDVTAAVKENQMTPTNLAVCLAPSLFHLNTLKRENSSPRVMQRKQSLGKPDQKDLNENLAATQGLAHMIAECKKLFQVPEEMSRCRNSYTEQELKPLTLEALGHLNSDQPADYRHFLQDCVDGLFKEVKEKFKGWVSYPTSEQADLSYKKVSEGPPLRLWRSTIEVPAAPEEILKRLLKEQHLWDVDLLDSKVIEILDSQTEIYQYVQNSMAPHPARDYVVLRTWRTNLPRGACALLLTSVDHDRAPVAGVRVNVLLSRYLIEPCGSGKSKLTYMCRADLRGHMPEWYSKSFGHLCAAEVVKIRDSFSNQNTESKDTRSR
As to the kind of experiment: native gel or EMSA; 2D BN-PAGE/SDS-PAGE of total BC 7-2 cell lysate (4-15% native gradient gel, then SDS-PAGE), immunoblot with anti-Dlc1, Myh9, Plec and Spectrin antibodies; members of one complex lie on a vertical line. Background: Mobility shift assays separate free from complexed probe on a gel.

The target of test [3] is non-muscle myosin heavy chain II-A (Myh9) (mouse (endogenous in OC-033, BC-7-2 and Bend3)) (UniProt Q8VDD5). Described as above.
Test [4] shares this target. Nature of the test: co-IP; reciprocal co-immunoprecipitation with anti-Dlc1 and anti-Myh9 antibodies from pre-cleared Bend3 cell lysate, endogenous proteins, immunoblot.

Results are given in words; binding and its absence hold for the method and conditions named. For part of these data: In cells and extracts the contact can be indirect. Some results given as binding are weak or reduced against the parent protein; the word gives no strength. For part of these data: Where a sequence is shown, tags or fusion partners need not be part of it.

For the molecule “alpha spectrin 1 (Sptan1 also known as Spna2 and fodrin) (from UniProt P16546 1-2472)”, the values for the binding result in test [1], in test [2] and in test [3] were “binds”, “binds” and “no binding”, respectively.

For “plectin (Plec) (from UniProt Q9QXS1 1-4691)”, the binding entry in test [1] and in test [2] was “binds” each time.

B1: Dlc1 (endogenous, constitutively expressed) (protein, UniProt Q9R0Z9 1-1092)
chain: MCRDEPDTMILTQIEAKEACDWLRVTGFPQYAQLYEDLLFPVDIALVKREHDFLDRDAIEALCRRLNTLNKCAVMKLEISPHRKRSEDSDEDEPCAISGKWTFQRDSKRWSRLEEFDVFFPKQDPIPGSPDNSRLQSATSHESMLTDLSEHQEVASVRSLSSTSSSVPTHAAHSGDATTPRTNSVISVCSSGHFVGNDDSFSSLPSPKELSSFSFSMKGHHEKNTKSKTRSLLKRMESLKLKGSHHSKHKAPSKLGLIISAPILQEGMDEAKLKQLNCVEISALNGNHINVPMVRKRSVSNSTQTSSSSSQSETSSAVSTPSPVTRTRSLSTCNKRVGMYLEGFDPFSQSTLNNVTEQNYKNRESYPEDTVFYIPEDHKPGTFPKALSHGSFCPSGNSSVNWRTGSFHGPGHLSLRRENSHDSPKELKRRNSSSSLSSRLSIYDNVPGSILYSSSGELADLENEDIFPELDDILYHVKGMQRIVNQWSEKFSDEGDSDSALDSVSPCPSSPKQIHLDVDHDRRTPSDLDSTGNSLNEPEEPTDIPERRDSGVGASLTRCNRHRLRWHSFQSSHRPSLNSVSLQINCQSVAQMNLLQKYSLLKLTALLEKYTPSNKHGFSWAVPKFMKRIKVPDYKDRSVFGVPLTVNVQRSGQPLPQSIQQAMRYLRNHCLDQVGLFRKSGVKSRIQALRQMNESAEDNVNYEGQSAYDVADMLKQYFRDLPEPLMTNKLSETFLQIYQYVPKDQRLQAIKAAIMLLPDENREVLQTLLYFLSDVTAAVKENQMTPTNLAVCLAPSLFHLNTLKRENSSPRVMQRKQSLGKPDQKDLNENLAATQGLAHMIAECKKLFQVPEEMSRCRNSYTEQELKPLTLEALGHLNSDQPADYRHFLQDCVDGLFKEVKEKFKGWVSYPTSEQADLSYKKVSEGPPLRLWRSTIEVPAAPEEILKRLLKEQHLWDVDLLDSKVIEILDSQTEIYQYVQNSMAPHPARDYVVLRTWRTNLPRGACALLLTSVDHDRAPVAGVRVNVLLSRYLIEPCGSGKSKLTYMCRADLRGHMPEWYSKSFGHLCAAEVVKIRDSFSNQNTESKDTRSR
For the molecule B1, the binding result in test [4] is given as “binds”.
